Reference: PubChem BioAssay AID1347075 (National Center for Advancing Translational Sciences (NCATS), 2019)
“And” between values parts separate entries of the source, which are not always exact repeats. Equal entries are not always repeated. The campaign covered roughly 400,000 compounds. About 5,500 (1.4%) were called active. The inconclusive results got no clear call from the source; some entries with a clear call stand among them for comparison. Calls come from the whole dose curve; as a rule, active = well fitted cell-killing curve with a large enough effect; inconclusive = small, poorly fitted or top-dose-only effect, or effect the other way; inactive = flat fitted curve, though single readings scatter. Where the call is inconclusive, the potency comes from a doubtful curve fit.

experiment: qHTS assay for MDR1-selective chemotherapeutics: Primary screen using the parental adenocarcinoma cell KB-3-1; conditions: KB-3-1 viability, CellTiter-Glo ATP luminescence, 72 h; activity change, negative = cytotoxic: at 46.1 µM (top of the series); note: nearly all actives have a fitted effect of over 60% in size
Outline: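 Parental KB-3-1 adenocarcinoma cells in phenol-red-free DMEM with 10% FBS were pin-treated with compounds at several concentrations, incubated 72 h at 37 °C, and viability read by CellTiter-Glo luminescence; concentration-effect curves were fitted after normalization.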
% is set by controls: 0 for no effect and ±100 for the full control effect; potency is the fitted concentration of half-maximal effect.

SMILES	Potency	activity change, negative = cytotoxic
O=C(CSc1nnc(C2COc3ccccc3O2)o1)N1CCN(c2ccccc2)CC1 (centres undefined)	inactive	–
COc1ccc(NC(=S)NCc2ccccc2Cl)c(OC)c1	inactive	–
O=C(Nc1nc(-c2ccc(Oc3ccccc3)cc2)cs1)C1=COCCO1	inconclusive: 20.6 µM [cytotoxic, single point]	–
COc1ccc(C(=O)C2CCCN(Cc3cccn3-c3nccs3)C2)cc1F (centres undefined)	inconclusive: 18.4 µM [cytotoxic, partial curve, poor fit]	–
COc1ccc(C2=CCN3CCCCC3C2)c(-c2ccc(OC)c(OC)c2)c1 (centres undefined)	inconclusive: 18.4 µM [cytotoxic, partial curve]	–
CCN(Cc1ccccc1)C(c1ccc(C)cc1)c1nnnn1C(C)(C)CC (centres undefined)	inconclusive: 29.1 µM [cytotoxic, single point]	–
Cc1nn(C)cc1/C=N/NC(=O)c1ccco1	inconclusive: 25.9 µM [rising, single point]	–
COc1ccccc1NC(=O)C(=O)NNS(=O)(=O)c1ccc2ccccc2c1	inactive	–
CCOC(=O)CN(C(=O)CSc1nnc(-c2cccc(OC)c2)o1)c1ccc(F)cc1	inconclusive: 29.1 µM [cytotoxic, single point]	–
Cn1c(=O)c2cc(S(=O)(=O)NC(Cc3ccccc3)C(=O)Nc3ccc(F)cc3)ccc2n(C)c1=O (centres undefined)	inactive	–
CCN(CC)c1ccc(/C=C(\C#N)c2ccccn2)cc1	inconclusive: 23.1 µM [cytotoxic, partial curve, poor fit]	–
COc1ccc(OC)c(CCNc2ncnc3onc(-c4ccc(Cl)cc4)c23)c1	inactive	–
O=C(OCC(=O)c1cccs1)c1cccc(C(=O)OCC(=O)c2cccs2)n1	inconclusive: 29.1 µM [rising, single point]	–
COc1ccc(-c2[nH]c(-c3ccc(Cl)cc3)nc2SCC(=O)Nc2nccs2)cc1	inconclusive: 18.4 µM [cytotoxic, single point]	–
O=C1CCNc2cc3ccccc3cc21	active: 23.1 µM	–
Cc1ccccc1Cn1c2ccccc2c2cnn(CC(=O)NCc3cccc(Cl)c3)c(=O)c21	inactive	–
Cc1ccc(-c2csc(N/N=C/C=C/c3ccccc3)n2)cc1	inactive	–
CCCCCCCCC(c1nc2ccccc2[nH]1)N1CCN=C1c1cc2ccccc2[nH]1 (centres undefined)	inconclusive: 29.1 µM [cytotoxic, single point]	–
CN(C)C(=O)CSc1cccc2cccnc12	inconclusive: 29.1 µM [cytotoxic, single point]	–
CC(C)CNC(=S)N(Cc1ccco1)Cc1cc2cc3c(cc2[nH]c1=O)OCCO3	inconclusive: 29.1 µM [cytotoxic, single point]	–
Cc1ccccc1C(=O)Nc1nnc(CC(=O)N/N=C/c2cn(Cc3ccccc3)c3ccccc23)s1	inconclusive: 25.9 µM [cytotoxic, single point]	–
N#Cc1ccc(CSc2nnc(-c3cccs3)n2-c2ccccc2)cc1	inactive	–
FC(F)(Cl)c1nnc2ccc(Cl)nn12	active: 6.51 µM	–

SMILES	Potency	activity change, negative = cytotoxic
O=C(Oc1ccc2c(c1)OCO2)c1ccc(Br)c(S(=O)(=O)N2CCOCC2)c1	inactive	–
C[C@H]1CCCCO[C@H](CN(C)CC2CCCCC2)[C@@H](C)CN([C@@H](C)CO)C(=O)c2cc(NS(=O)(=O)c3ccccc3)ccc2O1	inconclusive: 29.1 µM [cytotoxic, single point]	–
O=C(Nc1nc(-c2ccc3c(c2)OCO3)cs1)c1ccncc1	active: 2.91 µM	–
Cc1ccccc1CS(=O)(=O)c1ccc(C(=O)N2CCOCC2)cc1[N+](=O)[O-]	inconclusive: 18.4 µM [cytotoxic, partial curve]	–
CSc1ccc(NC(=O)Nc2cccn(Cc3ccccc3F)c2=O)cc1	inconclusive: 25.9 µM [cytotoxic, partial curve, poor fit]	–
COc1cccc(N(CC(=O)NCCSc2ccccc2)S(C)(=O)=O)c1	inactive	–
Cc1cc(S(=O)(=O)Nc2ccc3ccccc3c2)c(C)s1	inconclusive: 29.1 µM [cytotoxic, single point]	–
COc1cc(SC)ccc1C(=O)N1CCN(Cc2ccc3c(c2)OCO3)CC1	inconclusive: 23.1 µM [cytotoxic, single point]	–
O=C1CC(c2ccccc2)Sc2ccccc2N1Cc1ccccc1F (centres undefined)	inconclusive: 18.4 µM [cytotoxic, partial curve]	–
CC1=NNC(=O)/C1=C\c1cn(-c2ccccc2)nc1-c1ccc(Cl)cc1	active: 25.9 µM	–
COCCn1c(N)c(N(Cc2ccccc2)C(=O)COc2ccccc2F)c(=O)[nH]c1=O	inactive	–
CCc1ccccc1Nc1cc(C(=O)NCc2ccccn2)c2ccccc2n1	inconclusive: 14.6 µM [rising, partial curve, poor fit]	–
N=c1ccn(Cc2ccccc2Cl)cc1	inconclusive: 25.9 µM [cytotoxic, partial curve, poor fit]	–
O=C1COc2ccc(C(=O)COC(=O)Cc3ccccc3F)cc2N1	inconclusive: 16.4 µM [rising, single point]	–
c1ccc(CNc2ncnc3nc(N4CCOCC4)[nH]c23)cc1	inconclusive: 29.1 µM [rising, single point]	–
Cc1ccc(OCCC(=O)NNC(=O)c2ccccc2F)cc1	inconclusive: 25.9 µM [rising, single point]	–
c1ccc(-n2ncc3c(NCCCN4CCOCC4)ncnc32)cc1	inactive	–
CS(=O)(=O)c1ccc2nc(NC(=O)c3cccs3)sc2c1	inconclusive: 29.1 µM [cytotoxic, single point]	–
COc1ccc(N2CCN(C(=O)CCNS(=O)(=O)c3ccc(Br)s3)CC2)cc1	inconclusive: 16.4 µM [cytotoxic, partial curve, poor fit]	–
Cc1cc(C)nc(SCc2ccc(C(=O)N/N=C/c3ccncc3)cc2)n1	inactive	–
COc1cc([C@@H]2c3cc4c(cc3[C@H](O)[C@H]3COC(=O)[C@H]23)OCO4)cc(OC)c1OC	inconclusive: 5.8 nM [cytotoxic, full curve, poor fit] and active: 103 nM	–
CN(Cc1ccccc1)C(=O)[C@@H]1CCCN1C(=O)[C@@H]1CCCN1C(=O)c1cccs1	inactive	–
Brc1ccc(-c2cnc3n2CCCC3)cc1	inconclusive: 29.1 µM [cytotoxic, single point]	–

SMILES	Potency	activity change, negative = cytotoxic
O=c1c2ccccc2nnn1-c1ccc(Br)cc1	inactive	–
O=S(=O)(NN=C1CCCCCCC1)c1ccccc1	inactive	–
Cc1ccc(NC(=O)CNC(=O)c2ccco2)nc1	inactive	–
CC(=O)Oc1ccc2ccccc2c1C(NC(=O)Cc1ccccc1)c1ccccc1Cl (centres undefined)	inconclusive: 29.1 µM [cytotoxic, single point]	–
O=C(Cn1ncc2ccsc2c1=O)N1CCN(c2ccc(Cl)cc2)CC1	inconclusive: 29.1 µM [cytotoxic, single point]	–
CC1(c2nnnn2-c2ccc3c(c2)OCCO3)CCC(=O)N1C1CCN(Cc2ccccc2)CC1 (centres undefined)	inactive	–
CN(/N=C/c1ccc(O)cc1O)c1nc(-c2ccccc2)cc(-c2ccccc2)n1	inconclusive: 32.6 µM [cytotoxic, partial curve, poor fit]	–
Cc1ccc2c(Sc3ccc(Cl)cc3)c(C(=O)N3CCCCC3)[nH]c2c1	inconclusive: 29.1 µM [cytotoxic, single point]	–
CON(C)c1nc(OCCNC(=O)OCc2ccc(Cl)cc2Cl)nc(N(C)C)n1	inactive	–
O=C(CSc1nc2c(c(C(F)(F)F)n1)CCc1ccccc1-2)NCc1ccccc1	inconclusive: 18.4 µM [cytotoxic, single point]	–
Cc1ccc(NC(=O)CN(C)S(=O)(=O)c2cccs2)cc1C	inconclusive: 20.6 µM [rising, partial curve, poor fit]	–
O=C(CN(C(=O)CCC(=O)Nc1nccs1)c1ccccc1F)NCc1ccccc1	–	inconclusive: 7.39%
CC1(C)CCC/C(=C\c2ccccc2)C1=O	inconclusive: 18.4 µM [rising, single point]	–
CN(C)c1cc(-c2ccc(Br)cc2)oc(=O)c1Cl	inconclusive: 7.31 µM [cytotoxic, partial curve, poor fit]	–
C[C@H](CO)N1C[C@H](C)[C@@H](CN(C)S(C)(=O)=O)Oc2ccc(NS(=O)(=O)c3cn(C)cn3)cc2C1=O	inconclusive: 29.1 µM [rising, partial curve, poor fit]	–
CCOC(=O)c1[nH]c(C)c(C(=O)Nc2ccc(C)c(C)c2)c1C	inconclusive: 18.4 µM [cytotoxic, single point]	–
Cc1ccc(NC(=O)c2nc[nH]c2C(=O)N[C@@H](C)c2ccccc2)cc1	inconclusive: 29.1 µM [cytotoxic, single point]	–
CN[C@@H](C)C(=O)NC[C@H]1O[C@@H](n2cnc3c(N)ncnc32)[C@H](O)[C@@H]1O	inactive	–
CCn1c(CCNC(=O)c2ccc(OC)cc2)nnc1SCc1ccc(Cl)c(Cl)c1	inconclusive: 29.1 µM [cytotoxic, single point]	–
C=CCN1C(=O)C(CC(=O)Nc2ccc(OC)cc2)SC1=Nc1ccc(S(N)(=O)=O)cc1 (centres undefined)	inconclusive: 13 µM [rising, partial curve, poor fit]	–
O=C(COc1ccc2ccc(=O)oc2c1)NC1CCCC1	inconclusive: 32.6 µM [cytotoxic, partial curve, poor fit]	–
OC(COCCOc1ccc(Br)cc1)CN1CCN(Cc2ccccc2)CC1 (centres undefined)	inconclusive: 29.1 µM [cytotoxic, single point]	–
COc1cc(C(C)=O)ccc1OCC(O)CN1CCN(c2cc(C)cc(C)c2)CC1 (centres undefined)	inactive	–

A second format for some results above.

| SMILES | Potency | activity change, negative = cytotoxic |
| --- | --- | --- |
| O=c1c2ccccc2nnn1-c1ccc(Br)cc1 | inactive | – |
| O=S(=O)(NN=C1CCCCCCC1)c1ccccc1 | inactive | – |
| Cc1ccc(NC(=O)CNC(=O)c2ccco2)nc1 | inactive | – |
| CC(=O)Oc1ccc2ccccc2c1C(NC(=O)Cc1ccccc1)c1ccccc1Cl (centres undefined) | inconclusive: 29.1 µM [cytotoxic, single point] | – |
| O=C(Cn1ncc2ccsc2c1=O)N1CCN(c2ccc(Cl)cc2)CC1 | inconclusive: 29.1 µM [cytotoxic, single point] | – |
| CC1(c2nnnn2-c2ccc3c(c2)OCCO3)CCC(=O)N1C1CCN(Cc2ccccc2)CC1 (centres undefined) | inactive | – |
